Measurements from article PMC9776557.
These are yes or no findings as the source states them, for the method shown. In cells and extracts the contact can be indirect. Some binding calls cover weakened binding; strength is not graded here.

The chains behind the UniProt entries cited, without tags or fusion partners.
UniProt Q969H0: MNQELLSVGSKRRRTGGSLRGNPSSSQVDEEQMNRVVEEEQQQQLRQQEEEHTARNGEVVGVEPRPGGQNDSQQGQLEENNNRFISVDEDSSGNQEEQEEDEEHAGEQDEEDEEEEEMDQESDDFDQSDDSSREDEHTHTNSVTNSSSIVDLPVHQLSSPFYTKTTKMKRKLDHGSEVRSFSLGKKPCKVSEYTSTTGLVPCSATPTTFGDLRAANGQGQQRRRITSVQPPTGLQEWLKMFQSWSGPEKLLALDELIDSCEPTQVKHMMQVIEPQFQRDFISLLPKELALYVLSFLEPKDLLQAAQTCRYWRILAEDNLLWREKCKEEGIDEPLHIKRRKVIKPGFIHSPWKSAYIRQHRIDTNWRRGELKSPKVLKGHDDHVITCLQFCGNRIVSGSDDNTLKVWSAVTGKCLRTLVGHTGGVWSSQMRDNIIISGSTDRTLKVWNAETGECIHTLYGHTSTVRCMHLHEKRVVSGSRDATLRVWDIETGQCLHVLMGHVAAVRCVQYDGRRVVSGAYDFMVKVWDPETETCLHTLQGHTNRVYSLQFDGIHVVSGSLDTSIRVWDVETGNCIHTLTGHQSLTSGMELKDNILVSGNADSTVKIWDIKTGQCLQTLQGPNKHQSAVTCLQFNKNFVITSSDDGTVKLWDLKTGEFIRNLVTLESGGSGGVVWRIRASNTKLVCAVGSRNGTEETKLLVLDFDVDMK

Biological target: T1, Tripartite motif containing 24 (human (endogenous in HT-29 and Caco-2)) (UniProt O15164)
T1 sequence: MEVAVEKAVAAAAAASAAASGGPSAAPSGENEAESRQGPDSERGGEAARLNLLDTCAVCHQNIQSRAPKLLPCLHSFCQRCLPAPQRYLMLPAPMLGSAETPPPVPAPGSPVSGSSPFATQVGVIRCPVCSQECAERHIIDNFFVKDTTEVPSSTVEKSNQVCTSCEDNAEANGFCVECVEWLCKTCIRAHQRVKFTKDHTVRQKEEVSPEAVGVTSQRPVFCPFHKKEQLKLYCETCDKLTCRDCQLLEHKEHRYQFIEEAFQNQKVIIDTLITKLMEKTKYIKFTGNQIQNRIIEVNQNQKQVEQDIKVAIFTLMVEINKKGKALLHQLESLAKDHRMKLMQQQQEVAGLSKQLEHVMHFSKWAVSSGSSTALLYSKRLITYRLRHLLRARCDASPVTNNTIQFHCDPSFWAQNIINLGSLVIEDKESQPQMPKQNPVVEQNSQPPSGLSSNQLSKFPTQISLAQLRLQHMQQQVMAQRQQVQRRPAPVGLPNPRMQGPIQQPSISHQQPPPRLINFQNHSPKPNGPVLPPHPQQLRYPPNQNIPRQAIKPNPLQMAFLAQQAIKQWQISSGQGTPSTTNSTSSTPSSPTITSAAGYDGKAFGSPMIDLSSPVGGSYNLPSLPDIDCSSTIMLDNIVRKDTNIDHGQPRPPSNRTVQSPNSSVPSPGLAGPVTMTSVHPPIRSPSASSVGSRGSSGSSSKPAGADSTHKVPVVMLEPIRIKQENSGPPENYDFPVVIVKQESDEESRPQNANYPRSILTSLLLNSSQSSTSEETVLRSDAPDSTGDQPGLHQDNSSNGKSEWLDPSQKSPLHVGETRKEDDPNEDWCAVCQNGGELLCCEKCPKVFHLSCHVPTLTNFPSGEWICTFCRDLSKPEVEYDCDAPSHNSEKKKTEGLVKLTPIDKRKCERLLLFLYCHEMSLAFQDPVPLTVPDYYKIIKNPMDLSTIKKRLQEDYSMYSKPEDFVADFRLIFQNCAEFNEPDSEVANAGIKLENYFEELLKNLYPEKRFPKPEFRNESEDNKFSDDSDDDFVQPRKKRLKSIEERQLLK
Experiment: co-IP; 1 mg lysate of HT-29 or Caco-2 cells (IP lysis buffer) with 2 ug anti-FBXW7 or anti-TRIM24 antibody or normal IgG, 4 °C overnight; Protein A/G beads 4 °C 4 h; Western blot; also in cells transfected with sh-circ_RNF13 (increased association)

“F-box and WD repeat domain-containing 7 (from UniProt Q969H0 1-707)” was tested, and the binding was “binds”.
